# The list shows a part of the results.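 Rule for the calls: active = dose-dependent thermal stabilisation significant by F-test of dose-response against flat model at 10% FDR; inactive = not significant.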
# By UniProt entry, the sequences of proteins in these tests, tags left out. Where a name states a change or a piece, a line headed by the entry shows the natural chain unless it says otherwise.
# UniProt Q66K64, whole entry: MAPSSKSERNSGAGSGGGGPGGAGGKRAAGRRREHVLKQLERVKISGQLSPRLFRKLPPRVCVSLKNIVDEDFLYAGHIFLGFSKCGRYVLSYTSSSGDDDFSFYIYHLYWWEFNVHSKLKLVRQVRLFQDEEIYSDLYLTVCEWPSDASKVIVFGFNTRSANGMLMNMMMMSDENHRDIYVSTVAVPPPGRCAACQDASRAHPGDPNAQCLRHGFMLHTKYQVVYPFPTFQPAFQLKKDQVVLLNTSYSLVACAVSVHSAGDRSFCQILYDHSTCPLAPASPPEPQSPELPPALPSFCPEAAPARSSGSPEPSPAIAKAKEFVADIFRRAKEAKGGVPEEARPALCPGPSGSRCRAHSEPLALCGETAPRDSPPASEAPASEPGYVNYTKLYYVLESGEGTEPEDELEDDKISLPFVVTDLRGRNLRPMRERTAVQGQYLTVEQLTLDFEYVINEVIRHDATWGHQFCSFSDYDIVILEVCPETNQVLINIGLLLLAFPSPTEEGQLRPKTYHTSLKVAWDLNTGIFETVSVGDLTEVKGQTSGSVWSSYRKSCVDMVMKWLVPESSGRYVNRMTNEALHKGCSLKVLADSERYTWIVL
# UniProt Q92784, whole entry: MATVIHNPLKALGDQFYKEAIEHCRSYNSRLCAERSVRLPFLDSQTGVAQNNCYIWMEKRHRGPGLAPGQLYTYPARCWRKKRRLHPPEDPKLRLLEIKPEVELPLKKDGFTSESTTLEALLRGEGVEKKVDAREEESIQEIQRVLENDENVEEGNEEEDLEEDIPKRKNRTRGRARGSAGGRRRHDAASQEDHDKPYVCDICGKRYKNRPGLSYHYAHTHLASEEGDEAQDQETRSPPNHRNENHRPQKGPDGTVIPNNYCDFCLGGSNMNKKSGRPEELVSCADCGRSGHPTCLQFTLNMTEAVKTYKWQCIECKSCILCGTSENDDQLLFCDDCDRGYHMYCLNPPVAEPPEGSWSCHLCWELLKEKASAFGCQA
# UniProt O75534: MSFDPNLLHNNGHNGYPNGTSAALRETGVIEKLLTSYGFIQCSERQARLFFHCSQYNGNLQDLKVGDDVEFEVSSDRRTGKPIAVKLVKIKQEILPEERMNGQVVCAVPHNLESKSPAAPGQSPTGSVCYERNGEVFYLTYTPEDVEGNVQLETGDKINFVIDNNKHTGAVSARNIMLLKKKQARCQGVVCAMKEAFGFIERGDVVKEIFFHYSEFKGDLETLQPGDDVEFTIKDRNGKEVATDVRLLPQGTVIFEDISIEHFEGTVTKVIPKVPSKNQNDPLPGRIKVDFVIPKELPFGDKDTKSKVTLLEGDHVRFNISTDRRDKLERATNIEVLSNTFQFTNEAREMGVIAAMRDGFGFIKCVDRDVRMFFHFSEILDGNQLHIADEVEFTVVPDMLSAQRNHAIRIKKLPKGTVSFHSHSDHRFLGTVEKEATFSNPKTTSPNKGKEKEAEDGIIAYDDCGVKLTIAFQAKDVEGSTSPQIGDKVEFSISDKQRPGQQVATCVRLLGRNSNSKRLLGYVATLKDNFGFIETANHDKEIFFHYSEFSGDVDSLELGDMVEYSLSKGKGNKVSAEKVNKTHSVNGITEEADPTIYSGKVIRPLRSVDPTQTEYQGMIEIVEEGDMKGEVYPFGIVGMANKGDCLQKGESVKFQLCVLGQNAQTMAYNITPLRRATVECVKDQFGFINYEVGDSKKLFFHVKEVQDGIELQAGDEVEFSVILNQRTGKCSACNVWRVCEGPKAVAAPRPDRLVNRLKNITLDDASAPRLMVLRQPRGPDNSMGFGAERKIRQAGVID
# UniProt P35221: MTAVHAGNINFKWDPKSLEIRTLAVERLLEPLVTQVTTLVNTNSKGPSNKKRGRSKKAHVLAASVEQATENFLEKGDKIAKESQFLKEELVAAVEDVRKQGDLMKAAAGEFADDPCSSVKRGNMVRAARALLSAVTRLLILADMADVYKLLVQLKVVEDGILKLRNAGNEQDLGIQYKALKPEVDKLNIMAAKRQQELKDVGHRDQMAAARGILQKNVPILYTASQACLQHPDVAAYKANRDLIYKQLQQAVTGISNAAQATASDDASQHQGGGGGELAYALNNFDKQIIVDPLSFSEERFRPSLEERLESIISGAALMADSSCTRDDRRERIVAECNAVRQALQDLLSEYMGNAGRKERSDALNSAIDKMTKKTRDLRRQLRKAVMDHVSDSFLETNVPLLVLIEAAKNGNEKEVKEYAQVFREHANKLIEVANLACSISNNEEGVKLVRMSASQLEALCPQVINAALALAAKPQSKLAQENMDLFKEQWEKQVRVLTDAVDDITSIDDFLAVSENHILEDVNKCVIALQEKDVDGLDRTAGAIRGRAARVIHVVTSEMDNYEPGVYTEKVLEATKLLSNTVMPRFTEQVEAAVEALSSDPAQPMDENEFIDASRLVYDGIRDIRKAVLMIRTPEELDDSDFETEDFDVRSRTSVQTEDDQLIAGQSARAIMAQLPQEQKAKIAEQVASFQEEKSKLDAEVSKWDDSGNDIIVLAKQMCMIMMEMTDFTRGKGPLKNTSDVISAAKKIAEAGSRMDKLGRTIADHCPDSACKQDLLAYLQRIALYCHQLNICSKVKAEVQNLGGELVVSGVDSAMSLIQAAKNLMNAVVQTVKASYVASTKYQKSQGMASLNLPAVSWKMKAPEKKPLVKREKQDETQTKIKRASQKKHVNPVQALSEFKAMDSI
# UniProt Q8IYB7: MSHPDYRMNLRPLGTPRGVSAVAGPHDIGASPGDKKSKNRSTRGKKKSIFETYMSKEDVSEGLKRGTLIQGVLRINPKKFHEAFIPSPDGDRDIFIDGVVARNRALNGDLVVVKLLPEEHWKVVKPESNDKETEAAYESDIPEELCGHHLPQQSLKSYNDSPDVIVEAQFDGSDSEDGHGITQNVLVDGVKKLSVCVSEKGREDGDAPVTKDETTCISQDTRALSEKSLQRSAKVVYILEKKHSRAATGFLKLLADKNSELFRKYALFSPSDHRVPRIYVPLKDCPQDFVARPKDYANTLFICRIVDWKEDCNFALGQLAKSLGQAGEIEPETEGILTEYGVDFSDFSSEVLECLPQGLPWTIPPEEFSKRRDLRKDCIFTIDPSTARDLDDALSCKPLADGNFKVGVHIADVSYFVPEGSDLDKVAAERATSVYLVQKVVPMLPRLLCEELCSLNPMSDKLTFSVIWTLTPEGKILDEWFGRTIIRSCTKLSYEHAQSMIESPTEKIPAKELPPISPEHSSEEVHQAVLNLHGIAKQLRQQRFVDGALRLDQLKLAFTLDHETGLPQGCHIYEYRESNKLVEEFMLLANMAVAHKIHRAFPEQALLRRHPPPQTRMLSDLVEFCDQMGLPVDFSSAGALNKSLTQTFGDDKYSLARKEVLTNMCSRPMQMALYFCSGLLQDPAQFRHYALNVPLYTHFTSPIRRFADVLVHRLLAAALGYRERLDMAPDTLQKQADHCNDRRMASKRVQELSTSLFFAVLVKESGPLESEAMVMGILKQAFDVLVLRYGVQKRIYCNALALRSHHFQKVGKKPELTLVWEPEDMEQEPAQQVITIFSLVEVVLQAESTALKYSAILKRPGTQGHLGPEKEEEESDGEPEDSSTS
# UniProt O43598: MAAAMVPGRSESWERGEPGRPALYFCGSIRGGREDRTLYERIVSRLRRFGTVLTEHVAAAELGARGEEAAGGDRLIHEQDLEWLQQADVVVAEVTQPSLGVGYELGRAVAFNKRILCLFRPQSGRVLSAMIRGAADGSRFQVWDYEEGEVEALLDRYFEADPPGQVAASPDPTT
# UniProt P30046: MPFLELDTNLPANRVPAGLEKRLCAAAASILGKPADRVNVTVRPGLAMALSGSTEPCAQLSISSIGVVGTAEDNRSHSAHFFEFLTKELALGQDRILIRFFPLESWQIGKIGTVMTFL
# UniProt P0DTL5: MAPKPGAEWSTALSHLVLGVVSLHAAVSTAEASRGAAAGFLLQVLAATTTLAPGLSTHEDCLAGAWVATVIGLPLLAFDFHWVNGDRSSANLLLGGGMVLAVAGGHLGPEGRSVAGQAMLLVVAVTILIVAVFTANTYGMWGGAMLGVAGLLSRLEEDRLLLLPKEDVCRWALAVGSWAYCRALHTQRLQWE
# UniProt Q96HY6: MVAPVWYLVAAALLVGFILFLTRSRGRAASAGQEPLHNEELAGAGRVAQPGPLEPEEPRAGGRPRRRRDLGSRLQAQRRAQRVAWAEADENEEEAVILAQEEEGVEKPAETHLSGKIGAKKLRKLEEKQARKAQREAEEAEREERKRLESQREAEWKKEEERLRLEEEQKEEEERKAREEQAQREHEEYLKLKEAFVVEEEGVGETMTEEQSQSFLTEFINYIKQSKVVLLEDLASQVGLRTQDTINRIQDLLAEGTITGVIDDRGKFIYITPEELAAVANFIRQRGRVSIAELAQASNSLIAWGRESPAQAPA
# UniProt Q96FN9: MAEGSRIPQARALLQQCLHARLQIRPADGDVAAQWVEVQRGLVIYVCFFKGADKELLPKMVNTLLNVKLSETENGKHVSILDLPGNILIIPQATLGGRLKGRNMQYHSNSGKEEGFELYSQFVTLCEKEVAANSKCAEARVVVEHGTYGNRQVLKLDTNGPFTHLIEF
# UniProt P25686: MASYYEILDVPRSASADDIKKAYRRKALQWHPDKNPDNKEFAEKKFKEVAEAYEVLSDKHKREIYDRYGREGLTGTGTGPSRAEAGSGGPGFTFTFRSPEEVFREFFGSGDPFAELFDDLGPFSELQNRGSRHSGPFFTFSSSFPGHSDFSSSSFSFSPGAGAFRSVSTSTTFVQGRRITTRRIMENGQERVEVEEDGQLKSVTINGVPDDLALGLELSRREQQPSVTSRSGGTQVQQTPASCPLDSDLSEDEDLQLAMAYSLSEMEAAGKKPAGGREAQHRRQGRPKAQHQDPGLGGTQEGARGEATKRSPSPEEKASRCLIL
# UniProt Q8IV53: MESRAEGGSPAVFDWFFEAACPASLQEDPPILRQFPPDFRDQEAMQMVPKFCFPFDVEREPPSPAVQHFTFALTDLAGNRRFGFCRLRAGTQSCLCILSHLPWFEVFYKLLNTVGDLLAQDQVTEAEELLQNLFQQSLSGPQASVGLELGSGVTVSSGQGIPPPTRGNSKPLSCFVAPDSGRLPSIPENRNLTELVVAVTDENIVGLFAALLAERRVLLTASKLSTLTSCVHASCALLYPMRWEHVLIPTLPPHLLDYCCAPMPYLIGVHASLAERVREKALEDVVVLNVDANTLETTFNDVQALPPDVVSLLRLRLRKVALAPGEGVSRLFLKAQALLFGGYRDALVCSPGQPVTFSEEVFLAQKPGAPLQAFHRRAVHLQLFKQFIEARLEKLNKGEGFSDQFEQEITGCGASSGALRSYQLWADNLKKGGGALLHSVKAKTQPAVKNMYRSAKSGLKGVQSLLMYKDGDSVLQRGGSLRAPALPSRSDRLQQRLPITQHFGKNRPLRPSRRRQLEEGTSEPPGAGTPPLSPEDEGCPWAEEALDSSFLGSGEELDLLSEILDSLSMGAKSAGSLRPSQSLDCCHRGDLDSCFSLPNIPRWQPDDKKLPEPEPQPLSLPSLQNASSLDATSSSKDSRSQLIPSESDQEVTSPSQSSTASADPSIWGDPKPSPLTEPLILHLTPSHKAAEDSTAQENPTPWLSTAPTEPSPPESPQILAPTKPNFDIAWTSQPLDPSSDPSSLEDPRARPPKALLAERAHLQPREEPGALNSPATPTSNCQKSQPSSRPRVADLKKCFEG
# UniProt A6NHG4: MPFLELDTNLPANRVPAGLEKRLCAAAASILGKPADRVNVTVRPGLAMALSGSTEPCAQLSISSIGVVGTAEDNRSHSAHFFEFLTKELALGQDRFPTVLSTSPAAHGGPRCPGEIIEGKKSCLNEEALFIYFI
# UniProt Q13616, whole entry: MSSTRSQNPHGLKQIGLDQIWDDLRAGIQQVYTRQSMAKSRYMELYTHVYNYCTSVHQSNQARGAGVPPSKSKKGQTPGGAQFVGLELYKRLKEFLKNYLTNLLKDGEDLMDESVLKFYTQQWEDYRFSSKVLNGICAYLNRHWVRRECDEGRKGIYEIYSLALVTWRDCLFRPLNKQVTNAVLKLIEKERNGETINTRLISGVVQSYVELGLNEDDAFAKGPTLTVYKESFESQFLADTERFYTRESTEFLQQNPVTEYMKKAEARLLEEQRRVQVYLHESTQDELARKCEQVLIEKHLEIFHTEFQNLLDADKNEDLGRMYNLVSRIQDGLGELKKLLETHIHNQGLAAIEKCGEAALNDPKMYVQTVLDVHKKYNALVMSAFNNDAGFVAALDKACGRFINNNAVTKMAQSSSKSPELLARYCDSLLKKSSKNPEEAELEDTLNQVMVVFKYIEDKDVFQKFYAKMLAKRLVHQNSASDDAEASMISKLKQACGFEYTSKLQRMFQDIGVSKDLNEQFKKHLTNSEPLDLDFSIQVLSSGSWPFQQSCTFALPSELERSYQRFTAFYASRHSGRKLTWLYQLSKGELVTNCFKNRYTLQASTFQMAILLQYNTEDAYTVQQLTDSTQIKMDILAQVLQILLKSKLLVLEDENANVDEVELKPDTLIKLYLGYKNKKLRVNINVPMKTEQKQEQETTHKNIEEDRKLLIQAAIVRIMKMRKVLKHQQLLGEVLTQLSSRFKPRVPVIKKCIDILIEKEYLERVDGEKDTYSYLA
# Compound: Nc1nc2c(ncn2[C@@H]2O[C@H](COP(=O)(O)OP(=O)(O)OP(=O)(O)O)[C@@H](O)[C@H]2O)c(=O)[nH]1
# Assay: dose-dependent thermal stabilisation call (2D-TPP, DLPTP, 10% FDR) (binary (1 = stabilised)); higher = stabilised by the compound
# Settings: system: Jurkat gel-filtered lysate; concentration range 1-500 µM
# Method: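 2D thermal proteome profiling in gel-filtered Jurkat E6.1 lysate (2 mg/ml) treated with NaGTP (0, 1, 10, 100, 500 uM) for 10 min at room temperature, then heated 3 min at one of 12 temperatures (42-63.9 C). Soluble protein was quantified by TMT10 MS. The value is the DLPTP call of the paper: dose-dependent thermal stabilisation over all temperatures at 10% FDR (F-test of a dose-response against a flat model); one experiment, one call per tested protein.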
row,Target,dose-dependent thermal stabilisation call
1,DCAF15 (UniProt Q66K64),inactive: 0
2,DPF3 (UniProt Q92784),inactive: 0
3,CSDE1 (UniProt O75534),inactive: 0
4,CTNNA1 (UniProt P35221),inactive: 0
5,DIS3L2 (UniProt Q8IYB7),inactive: 0
6,EDF1 (UniProt O60869),inactive: 0
7,DNPH1 (UniProt O43598),active: 1
8,CUL4A (UniProt Q13619),inactive: 0
9,CRKL (UniProt P46109),inactive: 0
10,DDT (UniProt P30046),inactive: 0
11,E2F4 (UniProt Q16254),inactive: 0
12,DCUN1D1 (UniProt Q96GG9),inactive: 0
13,DARS (UniProt P14868),inactive: 0
14,DNAAF5 (UniProt Q86Y56),inactive: 0
15,CYHR1 (UniProt P0DTL5),inactive: 0
16,DAZAP1 (UniProt Q96EP5),inactive: 0
17,DIAPH2 (UniProt O60879),inactive: 0
18,EEF1G (UniProt P26641),inactive: 0
19,DUSP3 (UniProt P51452),inactive: 0
20,DEAF1 (UniProt O75398),inactive: 0

row,Target,dose-dependent thermal stabilisation call
1,DDX46 (UniProt Q7L014),inactive: 0
2,E2F3 (UniProt O00716),inactive: 0
3,DCAF10 (UniProt Q5QP82),inactive: 0
4,DDRGK1 (UniProt Q96HY6),inactive: 0
5,DPH6 (UniProt Q7L8W6),inactive: 0
6,DYRK1A (UniProt Q13627),active: 1
7,CWC15 (UniProt Q9P013),inactive: 0
8,DTD2 (UniProt Q96FN9),inactive: 0
9,CRTC1 (UniProt Q6UUV9),inactive: 0
10,CTSB (UniProt P07858),inactive: 0
11,CSTF3 (UniProt Q12996),inactive: 0
12,DNAJB2 (UniProt P25686),inactive: 0
13,DNAJA1 (UniProt P31689),inactive: 0
14,DENND1C (UniProt Q8IV53),inactive: 0
15,DAXX (UniProt Q9UER7),inactive: 0
16,DDTL (UniProt A6NHG4),inactive: 0
17,CUL1 (UniProt Q13616),inactive: 0
18,CUL2 (UniProt Q13617),inactive: 0
19,CXorf56 (UniProt Q9H5V9),inactive: 0
20,CSNK2A1 (UniProt P68400),active: 1

# A second format for part of the listing above.
row | Target | dose-dependent thermal stabilisation call
2 | E2F3 (UniProt O00716) | inactive: 0
3 | DCAF10 (UniProt Q5QP82) | inactive: 0
